This assay can be described thus: qHTS Assay for Lipid Storage Modulators in Drosophila S3 Cells.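 As to cell number change: cells counted by Cell Tracker Red CMTPX staining in the red channel.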 The note with it: BODIPY lipid droplet fluorescence, 18-24 h; for cell number change: measured here: cell count max response, cells fed with added oleic acid. Put shortly:
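Laser-scanning cytometry quantifies lipid droplet accumulation (500–530 nm total intensity; droplet/cell object ratio) in oleic acid-fed (400 uM added) Drosophila S3 cells treated with a concentration series. 20 uM Triacsin C defined 100% inhibition.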
Background: qHTS replaces the single test concentration by a dilution series.

[1] abbreviates: measured here: lipid fluorescence (Fed channel) AC50, cells fed with added oleic acid.
Where [2] appears, read: measured here: cell number channel AC50, cells fed with added oleic acid.

The list shows a part of the results. These are further read-outs of the screen, such as a control signal, another cell line or another target. No call is given for them. The list favours compounds with an active or inconclusive main result. Potencies come from curve fits of mixed quality, noted in brackets.

What is called AC50 is the concentration at which the activity in the assay is half-maximal.

As to `CN(C)CCOC(=O)C12CC3CC(CC(C3)C1)C2`, the cell number change stood at 5.88%.
With `O=C(CCS(=O)(=O)c1cccc2nonc12)N1CCOCC1`, the cell number change is -5.54%. In addition, under setting [1], the AC50 was 32.6 µM [falling, partial curve, poor fit].
For `CCOc1ccc(S(=O)(=O)N2CCC(C(=O)NCc3ccco3)CC2)cc1C`, the cell number change is 9.66%. The AC50 under setting [1] is 0.00461 µM [rising, full curve, poor fit].
With `CCC(C)OC(=O)C[N+](C)(C)CCOC1CC2CCC1(C)C2(C)C` (centres undefined), the cell number change is -37.1%. Moreover, the AC50 under setting [2] was 25.9 µM [falling, partial curve, poor fit]. Under setting [1], the AC50 was 2.06 µM [falling, partial curve].
For `Cc1ccc(NC(=O)COc2ccc(CCO)cc2-n2nc3ccccc3n2)cc1C`, the cell number change is -30%. The half-maximal activity concentration (AC50) under setting [2] is 29.1 µM [falling, single point]. The AC50 under setting [1] is 20.6 µM [falling, single point].
For the compound `CC(C)(C)c1nnc(NS(=O)(=O)c2cc(Cl)ccc2Cl)s1`, the cell number change was -10.3%. Also, the AC50 under setting [1] was 0.13 µM [rising, full curve, poor fit].
With `COc1cc(C)c(S(=O)(=O)NC2CC(C)(C)NC(C)(C)C2)cc1C`, the cell number change was 8.89%. Further, the AC50 under setting [1] is 6.51 µM [rising, single point].
As to `O=c1[nH]c2ccccc2n2c(=S)[nH]nc12`, the cell number change was 22.6%. Further, the AC50 under setting [1] is 0.58 µM [falling, single point].
With `COc1cccc(/C=C/C(=O)OCC(=O)c2ccc(C)c(C)c2)c1OC`, the cell number change was 4.81%. In addition, the AC50 under setting [1] is 14.6 µM [rising, partial curve].
Regarding `CCc1noc(C)c1C(=O)OCC(=O)Nc1nc(-c2ccc(F)c(F)c2)cs1`, the cell number change was found to be 9.65%. For the same compound, the AC50 under setting [1] was 6.51 µM [rising, partial curve].
As for `Cc1cc(C(=O)CC#N)c(C)n1-c1ccc(OC(F)F)cc1`, the cell number change is -8.5%.
Turning to `O=C1CNC(=O)/C(=C\c2ccccc2)N1`, the cell number change amounted to 23.3%. Moreover, the AC50 under setting [1] is 0.58 µM [rising, partial curve, poor fit].
Turning to `CC(=O)c1c(N2CCCCC2)nc(=S)n(-c2ccccc2)c1C`, the cell number change was -7.25%. The AC50 under setting [1] is 0.651 µM [falling, full curve].
Turning to `CCC(C)N(C(=O)COC(=O)CSc1ccc(C)c(C)c1)C1CCS(=O)(=O)C1` (centres undefined), the cell number change was -2.98%.
Regarding `CC(C)c1ccc(N2C(=O)/C(=C/N(C)C)SC2=S)cc1`, the cell number change was -96.2%. In addition, the AC50 under setting [2] is 9.2 µM [falling, partial curve]. Besides, the AC50 under setting [1] is 4.61 µM [falling, partial curve].
For `CCS(=O)(=O)N1N=C(c2cccc(NS(C)(=O)=O)c2)CC1c1cccs1` (centres undefined), the concentration at half-maximal activity (AC50) is 0.116 µM [falling, full curve, poor fit] under setting [2] and 6.51 µM [rising, single point] under setting [1].
Turning to `O=c1ccc(/C=C/c2ccccc2)nn1Cc1ccc(F)cc1`, the cell number change was 32.6%. The AC50 under setting [1] was 6.51 µM [falling, single point].

These data come from PubChem BioAssay AID2685 (National Center for Advancing Translational Sciences (NCATS), 2010).
